# According to the supplement of paper PMC3334620:
# In all, about 33,000 sequences were measured (“E-score (-0.5 to 0.5)”: median about -0.016, highest 2% from about 0.3 on). The list shows a part of the results.
# Biological target: T1, Yer184c (UniProt P39961)
# T1 sequence: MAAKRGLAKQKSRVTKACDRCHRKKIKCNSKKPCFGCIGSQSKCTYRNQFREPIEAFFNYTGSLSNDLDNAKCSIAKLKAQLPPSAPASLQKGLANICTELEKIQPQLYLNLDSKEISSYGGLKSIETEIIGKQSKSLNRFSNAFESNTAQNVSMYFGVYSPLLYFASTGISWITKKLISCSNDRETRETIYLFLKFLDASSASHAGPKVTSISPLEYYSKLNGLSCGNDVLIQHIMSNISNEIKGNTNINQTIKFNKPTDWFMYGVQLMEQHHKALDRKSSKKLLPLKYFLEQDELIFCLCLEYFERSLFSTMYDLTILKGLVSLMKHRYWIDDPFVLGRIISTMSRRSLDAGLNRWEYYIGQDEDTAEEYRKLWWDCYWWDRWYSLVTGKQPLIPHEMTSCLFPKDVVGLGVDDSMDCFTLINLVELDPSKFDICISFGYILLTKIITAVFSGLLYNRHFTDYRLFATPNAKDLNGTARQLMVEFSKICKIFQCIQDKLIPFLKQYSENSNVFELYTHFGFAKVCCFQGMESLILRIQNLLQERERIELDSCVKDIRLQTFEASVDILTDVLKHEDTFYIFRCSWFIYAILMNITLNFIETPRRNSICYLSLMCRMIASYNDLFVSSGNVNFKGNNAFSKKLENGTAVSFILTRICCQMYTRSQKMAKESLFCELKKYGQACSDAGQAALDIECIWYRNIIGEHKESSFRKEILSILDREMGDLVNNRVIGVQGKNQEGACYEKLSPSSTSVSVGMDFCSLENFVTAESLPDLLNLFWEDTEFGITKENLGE
# Assay: PBM E-score (8-mer binding enrichment) (E-score (-0.5 to 0.5)); higher = stronger / more preferred TF binding
# Details: protein concentration: 100 nM; construct: GST-full length
# Outline: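 Yeast transcription factors carrying a GST tag, as full-length proteins or DNA-binding domains, were produced by PURExpress in vitro transcription/translation. About 100-200 nM protein was applied to universal all-10-mer Agilent arrays, double-stranded by primer extension on fresh or once-stripped slides. Bound protein was detected with fluorescent anti-GST, and scans were normalised with masliner. The Universal PBM Analysis Suite gave each ungapped eight-base word, pooled with its reverse complement, an E-score, a modified Wilcoxon-Mann-Whitney statistic.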
row,Sequence,PBM E-score
1,CTCAGTAA,-0.0129
2,GAATAAGA,0.00594
3,CTTGGTGA,-0.0525
4,AATTAAGC,0.207
5,CCTGAGTA,-0.0972
6,AAATGCTG,0.0174
7,AGCGATGG,-0.207
8,CATTTCGA,0.019
9,CTGGAATC,-0.192
10,GAGCGGGA,-0.0463
11,TCATTGAA,-0.00041
12,GGGCACAC,-0.198
13,CACAGGCC,-0.148
14,CCGGAAGG,0.28
15,AACTATGC,0.154
16,CTTTAACC,-0.0345
17,AAGCCAAA,0.0744
18,ACGTTGAG,-0.055
19,CATAGCCC,-0.362
20,ATAAACTG,0.153
21,TAGAATAA,0.128
22,AAATTATA,0.205
23,CATCTGGC,-0.0761
24,AACCGTCG,0.176
25,CCTATGCG,-0.148

row,Sequence,PBM E-score
1,ATCCCGCA,-0.0732
2,CATCGTGC,-0.0117
3,AAAAGCGA,0.0954
4,GTCCTTGA,-0.00188
5,CGCAGAGC,-0.142
6,CTAACTGC,-0.207
7,AACCCCCC,-0.46
8,ATGCCCCC,-0.376
9,GCATCTTA,-0.0252
10,ACCCTTTA,-0.142
11,CAATATCG,0.0115
12,ACGGCAAA,0.211
13,AGCCCCCC,-0.403
14,GCTTAGGA,-0.113
15,ATTATAAG,0.135
16,CCATTACA,0.107
17,CGGAGCCA,0.0508
18,GAGGGCAC,-0.271
19,CCAATTAC,-0.0446
20,GACCACAA,-0.032
21,GTCGCTGA,0.015
22,AATGGTAG,-0.00899
23,GTACTAAC,0.0717
24,CATCAAGG,-0.171
25,ACATACAG,-0.0958

row,Sequence,PBM E-score
1,GAGACTAC,-0.124
2,AAGACTGA,-0.0764
3,CCGAAAAC,0.243
4,ACCTACAG,-0.0545
5,CTCCGTGA,0.208
6,ATTTGTGC,0.0351
7,CCACCTGG,-0.342
8,ATGTTTCG,0.173
9,CGTGGTAA,-0.146
10,ATCCACCG,0.136
11,CCCTTGAA,-0.0291
12,ACCGCTAT,0.0175
13,TAAGGAGA,-0.0969
14,ACAATTAC,0.045
15,TCTAAGAA,0.252
16,ACTCGTAG,-0.126
17,AGACCGCG,0.11
18,AACCCCTA,-0.319
19,GCCAGCGC,-0.129
20,AGAGATAG,0.133
21,GCCGGGCA,0.275
22,ATACTTGA,-0.234
23,ACTTTGGG,-0.109
24,AAGGTACG,-0.127
25,GTGAATGA,0.0235

row,Sequence,PBM E-score
1,CAGACTGC,-0.249
2,AGAGCCTG,-0.167
3,GCAATGCA,-0.168
4,ACTGGTTG,0.0412
5,GAAAATGC,0.114
6,AGTCAGAC,-0.0721
7,ATCAACGG,0.24
8,CCTATCAG,-0.233
9,CAGATACC,-0.2
10,AGCCGATC,0.169
11,AATGAATG,0.0587
12,AGACTCAA,-0.0139
13,CTAAAACA,0.0593
14,CCTCGGTC,-0.0163
15,CTTAGAAC,0.107
16,CATTAGAG,-0.165
17,CATCCGGA,0.375
18,ACCCACCA,-0.19
19,ATGTCGAA,0.0448
20,GGGGCGGA,0.0132
21,TACACTCA,0.0322
22,AATTAAAA,0.202
23,CATACACA,-0.147
24,ATTCCCGA,0.162
25,ACGTTTAC,-0.0732

# 2 successive entries already listed, for reference:
row,Sequence,PBM E-score
20,GGGGCGGA,0.0132
21,TACACTCA,0.0322

# Further results.

row,Sequence,PBM E-score
1,TGTTTTAA,0.327
2,CGAATGGA,-0.0229
3,GGTTCTAA,0.0214
4,CATTACAC,-0.105
5,CGATATGC,0.0158
6,CCTCTTTC,-0.0159
7,GTCCACCA,-0.171
8,CAGTTTGG,-0.0756
9,GCGTGAGC,0.104
10,AGTAGTCC,-0.0872
11,AATTCTTC,0.157
12,CTCTAGTA,-0.00732
13,ACCACGAT,-0.0131
14,GCTCGTGA,-0.201
15,CTCTAACA,0.0218
16,AAGTGGCG,-0.0663
17,CATTCTGG,-0.113
18,CTGAAGGA,-0.0811
19,ATTAGCAA,0.223
20,ACCGCCGC,0.175
21,AAAGGTTA,-0.0402
22,ACCGCGTC,0.00355
23,TATCGTAA,0.072
24,AAAAGCAG,-0.144
25,GGTGATAC,-0.11

# Exported bar-delimited: entries from further up
row | Sequence | PBM E-score
18 | CTGAAGGA | -0.0811
19 | ATTAGCAA | 0.223
20 | ACCGCCGC | 0.175

# Going on with the list.

row,Sequence,PBM E-score
1,GCATGGCA,0.0641
2,CACCGCAC,-0.179
3,GCGAAACC,0.0965
4,ACGGGTAA,0.00866
5,CAGCTTGG,0.0813
6,AGGCCCAT,-0.226
7,GAGGCCCC,-0.213
8,CTAACCTC,-0.0675
9,GCGCCCAA,0.00965
10,TCTATAGA,-0.137
11,AAAGGAAC,0.0885
12,CCGAGAGC,-0.00325
13,AGTCTCAC,-0.0985
14,CATGAACG,-0.155
15,GGGGGCGA,-0.264
16,CTGCGTAC,-0.166
17,AATCGATT,0.0566
18,CAGCCACA,-0.0284
19,CCCAAGCC,-0.0587
20,CTGGCACC,-0.228
21,CAACGGTA,-0.0364
22,ATAAGGAC,0.171
23,ACACGTGC,-0.104
24,ACGGGAGC,-0.0391
25,CACAGCAG,-0.114

row,Sequence,PBM E-score
1,CCAGATGA,-0.0503
2,TAGGTCCA,-0.0628
3,ATTATCAC,0.145
4,TATCTTAA,0.152
5,AATACGTA,0.032
6,GGTGTTAA,0.0806
7,GCCGGTCA,0.209
8,ACCATTGC,-0.0741
9,GCGAAACA,0.0488
10,CGAGTTAC,0.14
11,CTCACGAG,-0.175
12,CTCAATTC,0.109
13,AGAGGTTC,-0.0469
14,ATCATGCA,-0.208
15,GTGTGTAA,-0.0604
16,ACGATCGT,0.059
17,AGAACCAC,-0.135
18,GGCCTGTA,-0.208
19,CCTCTTGA,-0.172
20,GTGGGGAA,0.0128
21,AAGGCCAT,-0.2
22,CTGCGCAC,-0.081
